The values below are quoted from earlier work in article PMC4019635 (PLoS ONE, 2014).

The structures appear in SMILES notation.

For series [1], the system named is RDLbdR^122G. The settings on record: read-out: GABA EC50; without A^301G; cited from earlier work.
The subject of series [2] is RDLbdR^122G with the A^301G mutation. The settings on record: cited from earlier work.

`NCCCC(=O)O` [GABA, γ-amino butyric acid]: the EC50 (in general, the midpoint of the concentration-response curve) in series [1] was 70 µM; in series [2], 26 µM.
